Assay results taken from paper PMC4392632.
These are yes or no findings as the source states them, for the method shown. Sequences can lack the tags named with a protein.

Biological target: T1, Phaeodactylum tricornutum cyclin-dependent kinase A2 (CDKA2), GAL4 DNA-binding domain fusion (bait) (Phaeodactylum tricornutum) (UniProt B7GDW6)
T1 sequence: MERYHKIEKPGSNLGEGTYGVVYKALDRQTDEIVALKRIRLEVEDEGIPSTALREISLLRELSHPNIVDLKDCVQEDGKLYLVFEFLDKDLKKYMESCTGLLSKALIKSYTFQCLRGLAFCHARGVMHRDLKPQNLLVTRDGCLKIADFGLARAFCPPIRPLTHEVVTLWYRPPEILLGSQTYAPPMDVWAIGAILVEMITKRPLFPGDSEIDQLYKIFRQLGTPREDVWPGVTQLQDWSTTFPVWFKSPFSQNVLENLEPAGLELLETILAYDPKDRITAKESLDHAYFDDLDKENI
Test: two-hybrid; pairwise Y2H co-transformation of bait (DBD) and prey (AD) plasmids in yeast PJ694-alpha; growth on medium lacking Leu, Trp and His and X-Gal (LacZ) test; three independent colonies

- binding: no binding
B1: dsCYC2, prey (AD) fusion (protein, UniProt B7FX62 1-349)
chain: MMKQQHSQQEDQIFDLLGVMIRQERTRYRVVNYLQREMVYECQQQQSQYVVEACASITNNQYAVKKSQSSTSLRDVQGDVGNSSPRSARTTSGPLRIESTASPVSDRAVQFSFWRQQMFDWACMVTDCFSIDREVVAASFNLLDRYVARELSSHSSSTCPDDYSPALVSPISREDFQLFSMTCLYITVKILEPYPRKLSLEALVDMSRGFYTPDDIAVTEREIMTALSWHLHPPTAIGFSRMYWSLLASTDATEPSSAVQTTCATLTELAVANAEFIDSPPSLVGLAATVLAYRLPANTNAHDTDQNGCSAAVHEAQARLLLAKLAPLVEPQAQQFHAIYTQLEALYGN
